Our source for the AC50 values is PubChem BioAssay AID493014 (National Center for Advancing Translational Sciences (NCATS), 2011).

This test can be described thus: qHTS Assay to Find Inhibitors of Chronic Active B-Cell Receptor Signaling. Particulars: ABC-DLBCL IkBa-CBG/CBR reporter, luminescence ratio (green luciferase fused to IkBa over red control in TMD8 lymphoma cells), 4 h. In a few lines:
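Compounds up to 46 uM were incubated four hours with TMD8 cells whose green CBG68 luciferase is fused to IkappaBalpha; red CBR luminescence normalised the signal, and concentration-effect curves were fitted to fusion, red and ratio data.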

Setting [1] is: measured here: CBR red luminescence, cell number.
Where [2] appears, read: measured here: IkBa-CBG green luminescence.

This is one part of the list. Shown are side measurements of this screen, not its main read-out; they come without a call. Most of these compounds were active or inconclusive in the main read-out, so they are no random draw. The note in brackets gives the kind of curve behind each potency; many fits are weak.

Usually AC50 stands for the concentration at which the activity in the assay is half-maximal. Turning to `CCCCCCCn1c(NC(=O)CC)nc2ccccc21`, the AC50 by setting is: under setting [1], 35.5 µM [rising, single point]; under setting [2], 22.4 µM [falling, single point].
In the case of `O=C(NC(=S)Nc1ccc2oc(-c3ccncc3)nc2c1)c1ccccc1F`, the AC50 under setting [1] was 4.47 µM [falling, partial curve].
Same read-out and setting: with `CC(C)CCn1c(SCC(=O)N2CC(=O)Nc3ccccc32)nc2scc(-c3cccs3)c2c1=O` the figure was 14.6 µM [rising, partial curve, poor fit]; with `O=C(COc1ccccc1)Nc1cc(S(=O)(=O)N2CCOCC2)ccc1N1CCCC1`, 29.1 µM [falling, single point].
For the molecule `C/C(=N\Nc1ccc([N+](=O)[O-])cc1)c1cc2ccccc2o1`, under setting [1], the AC50 was 2.24 µM [rising, partial curve, poor fit].
Still for that read-out and setting: with `O=C1[C@H]2[C@@H](c3ccc(F)cc3)N3C(=O)N(c4ccccc4)C(=O)[C@@]3(Cc3ccccc3)[C@H]2C(=O)N1C1CCCCC1` the figure was 0.58 µM [rising, full curve, poor fit]; with `Cc1cc(N2CCOCC2)nc2ccc(NC(=O)CCC(=O)N3CCN(c4cccc(C(F)(F)F)c4)CC3)cc12`, 35.5 µM [falling, single point]; with `CC1(C)CC(=O)C=C(/C=C/c2ccccc2)C1`, 0.326 µM [rising, full curve, poor fit].
The same measure, in the same setting: with `Clc1ccc(-c2n[nH]c3c2CCC3)cc1Cl` the figure was 0.1 µM [rising, full curve, poor fit]; with `CCNc1nc(NCC)n2c(SC(C(=O)Nc3cc(C)ccc3OC)c3ccccc3)nnc2n1` (stereo not drawn), 18.4 µM [falling, single point].
In the case of `CC12CCC(C(=O)Nc3cccc(Cl)c3Cl)([C@H](Br)C1=O)C2(C)C` (stereo partly drawn), the concentration at half-maximal activity (AC50) under setting [1] was 35.5 µM [rising, single point].
Same read-out and setting: with `CC(C1CC2CCC1C2)n1c(-c2cccs2)n[nH]c1=S` (stereo not drawn) the figure was 35.5 µM [rising, single point].
Still for that read-out and setting: with `O=C(c1ccccc1)C1Oc2ccccc2C2CC(c3cccs3)=NN12` (stereo not drawn) the figure was 20 µM [rising, single point]; with `CCCCNC(=O)CSc1cc(=O)n(C)c2ccccc12`, 16.4 µM [rising, partial curve, poor fit]; with `COc1cc2c(cc1OC)CN(C(=O)CC1CC3CCC1C3)CC2` (stereo not drawn), 2.51 µM [rising, full curve].
The same measure, in the same setting: for `N#Cc1ccc(C(=O)NCC(c2ccco2)N2CCCC2)cc1` (stereo not drawn) the value was 0.1 µM [rising, full curve, poor fit].
On to `CCOc1cccc(C(=O)Nc2ccc3oc(Cc4ccc(Cl)cc4)nc3c2)c1`, for which the concentration at half-maximal activity (AC50) was 18.4 µM [falling, single point] under setting [1] and 25.9 µM [rising, partial curve, poor fit] under setting [2].
As to `O=C(CSc1nnc(NC2CC2)s1)NN1C(=O)NC2(CCCCC2)C1=O`, the AC50 under setting [1] is 16.4 µM [rising, single point].
On to `Cc1ccc(Cn2ncc(Cl)c(Cl)c2=O)cc1`, for which the AC50 under setting [1] was 11.6 µM [falling, partial curve].
The same measure, in the same setting: with `C=CCNc1nc2ccccc2nc1NS(=O)(=O)c1cccc(C)c1` the figure was 15.8 µM [falling, partial curve, poor fit]; with `COC(=O)C(O)(CC(=O)Nc1ccccc1OC)C(F)(F)F` (stereo not drawn), 13 µM [falling, partial curve, poor fit].
For the molecule `OCCCc1nc2n(n1)C(c1ccccc1)C=C(c1ccccc1)N2` (stereo not drawn), under setting [1], the concentration at half-maximal activity (AC50) was 14.6 µM [rising, partial curve, poor fit].
For `CCOC(=O)N1CCC(Nc2ncnc3c2cnn3-c2ccc(C)cc2C)CC1`, under setting [1], the AC50 was 20.6 µM [falling, single point].
Same read-out and setting: with `CC1CCCC(C)N1C(=O)COC(=O)C1CCN(S(=O)(=O)c2c(Cl)cccc2Cl)CC1` (stereo not drawn) the figure was 0.731 µM [rising, partial curve, poor fit]; with `COc1ccc(-c2nc(NC(=O)C3CCN(c4nc5ccccc5o4)CC3)sc2C)cc1`, 10 µM [falling, partial curve].
Still for that read-out and setting: for `COc1ccccc1NC(=O)CSc1nnc(COc2ccccc2C)o1` the value was 2.51 µM [rising, full curve, poor fit]; for `O=C(Nc1ccc(Br)cc1)c1ccco1`, 0.731 µM [rising, partial curve, poor fit].
For `CC1CCCC(NCC(O)COC(c2ccc(F)cc2)c2ccc(F)cc2)C1C` (stereo not drawn), the AC50 under setting [1] is 11.2 µM [falling, partial curve].
On the same count and under the same terms, for `Cc1ccc(-c2cc(C(F)(F)F)c(C#N)c(SCC(=O)O)n2)cc1` the value was 3.98 µM [falling, full curve, poor fit]; for `CCCn1c(-c2ccncc2)n[nH]c1=S`, 5.62 µM [rising, single point].
Same read-out and setting: for `C/C(=C\c1cccc(Br)c1)C(=O)c1c(C)cc(C)[nH]c1=O` the value was 2.51 µM [falling, partial curve, poor fit].
`CC1CCc2c(C(=O)NCCCN3CCOCC3)csc2C1` (stereo not drawn): under setting [1], the AC50 was 2.82 µM [falling, partial curve, poor fit].
On to `CCOC(=O)Nc1ccc2c(c1)N(C(=O)CCN(CC)CC)c1ccccc1S2=O` (stereo not drawn), for which the AC50 runs as follows: under setting [1], 7.08 µM [falling, partial curve]; under setting [2], 14.1 µM [rising, single point].
In the case of `COc1ccc(/C=C/C(=O)Nc2nonc2NC(C)=O)cc1`, the AC50 under setting [1] is 18.4 µM [falling, partial curve].
Still for that read-out and setting: for `Cc1cccc(C#Cc2ccccc2)n1` the value was 25.9 µM [rising, single point]; for `Nc1ccc(C(=O)OCC(=O)N2CCOCC2)cc1[N+](=O)[O-]`, 14.6 µM [falling, partial curve, poor fit]; for `COc1cc(NC(=S)N2CCN(S(=O)(=O)c3ccc(F)cc3)CC2)cc(OC)c1`, 15.8 µM [falling, partial curve, poor fit].
With `COc1cc(Nc2c3c(nc4ccccc24)CCC3)cc(OC)c1OC`, the half-maximal activity concentration (AC50) under setting [2] was 15.8 µM [falling, partial curve].
For the molecule `c1ccc(-c2nnc(-c3ccccn3)s2)nc1`, under setting [1], the AC50 was 2 µM [falling, full curve, poor fit].
`O=C(Nc1ccc([N+](=O)[O-])cc1)c1ccccc1`: the concentration at half-maximal activity (AC50) under setting [1] is 22.4 µM [falling, partial curve, poor fit].
On the same count and under the same terms, with `Fc1ccc(OCc2cc(-c3ccccc3)no2)cc1` the figure was 15.8 µM [falling, single point]; with `CC1(C)SC(=S)N(NC(=O)Nc2ccccc2)C1N(O)C(=O)Nc1cccc2ccccc12` (stereo not drawn), 20.6 µM [falling, single point].
On the same count and under the same terms, for `Cc1noc(C(=O)Nc2cc(Cl)ccc2O)c1Cl` the value was 0.112 µM [rising, full curve, poor fit].
Regarding `O=C(Nc1ccc(F)cc1)Nc1csc2ccccc12`, the half-maximal activity concentration (AC50) under setting [1] is 3.98 µM [falling, full curve, poor fit].
The same measure, in the same setting: for `FC(F)(F)c1ccc(/C=N/n2c(C3CCCCC3)n[nH]c2=S)cc1` the value was 15.8 µM [rising, partial curve].
The same measure, in the same setting: with `COc1ccc(C(CNC(=O)c2cc(C)oc2C)N2CCOCC2)cc1` (stereo not drawn) the figure was 2.51 µM [falling, full curve]; with `Nc1nc(CSc2nc3ccccc3s2)nc(Nc2ccccc2)n1`, 32.6 µM [falling, single point].
The same measure, in the same setting: with `C/C(=N\NC(=O)c1ccccc1)c1ccc2c(c1)OCO2` the figure was 13 µM [falling, partial curve, poor fit]; with `O=C(Cn1cnc2ccccc2c1=O)Nc1ccc2c(c1)OCO2`, 2.91 µM [rising, single point].
For `CC1CCCN(c2nc(-c3cccnc3)nc3scc(-c4ccccc4)c23)C1` (stereo not drawn), under setting [1], the AC50 was 29.1 µM [rising, single point].
On the same count and under the same terms, for `Cc1ccc(SC2=C(Sc3ccc(C)cc3)C(=O)c3ccccc3C2=O)cc1` the value was 7.08 µM [rising, partial curve, poor fit].
Still for that read-out and setting: with `O=C(CN(C1CC1)S(=O)(=O)c1ccc(S(=O)(=O)NC2CCCCC2)cc1)Nc1ccccc1` the figure was 22.4 µM [falling, single point]; with `COc1ccccc1N1CCN(C(=O)c2ccc3c(c2)CCN3S(=O)(=O)c2ccccc2)CC1`, 35.5 µM [falling, single point].
For the molecule `COc1ccc(NC(=O)N2CCCC2C(=O)NC23CC4CC(CC(C4)C2)C3)cc1` (stereo not drawn), the AC50 under setting [1] is 0.708 µM [rising, full curve, poor fit].
As for `C/C(=N\NC(=O)c1nn(C)cc1Br)c1ccncc1`, the half-maximal activity concentration (AC50) under setting [1] was 8.2 µM [falling, partial curve].
The same measure, in the same setting: with `COCC(=O)NCc1ccc2c(c1)cc(C)n2C` the figure was 18.4 µM [rising, partial curve, poor fit].
The same measure, in the same setting: with `CN1/C(=C\C(=O)Nc2ccc(Br)cc2)C(C)(C)c2ccccc21` the figure was 2.59 µM [rising, full curve, poor fit].
On to `COc1ccc2cc(CN(CC3CCCO3)C(=O)Nc3ccccc3)c(=O)[nH]c2c1` (stereo not drawn), for which the AC50 under setting [1] was 17.8 µM [falling, single point] and the AC50 under setting [2] was 12.6 µM [rising, single point].
With `CC(=O)[C@H]1CCC2C3CC=C4C[C@@H](O)CC[C@]4(C)C3CC[C@@]21C` (stereo partly drawn), the half-maximal activity concentration (AC50) under setting [1] is 8.2 µM [rising, partial curve, poor fit].
Same read-out and setting: for `Cc1cc(C)n2nc(C(=O)Nc3cccc(S(=O)(=O)N(C)c4ccccc4)c3)nc2n1` the value was 0.282 µM [rising, full curve, poor fit].
For `CCCCn1c(SCC(=O)NCC2CCCO2)nc2ccc(N3CCOCC3)cc2c1=O` (stereo not drawn), under setting [1], the concentration at half-maximal activity (AC50) is 0.58 µM [falling, full curve, poor fit].
On the same count and under the same terms, for `COc1cc(NC(=O)C(=O)N2CCN(C)CC2)c(OC)cc1Cl` the value was 0.794 µM [rising, partial curve, poor fit].
As to `O=C(Nc1nnc(-c2ccccc2)o1)c1cc(-c2cccs2)nc2ccccc12`, the AC50 under setting [1] was 29.1 µM [falling, single point] and the AC50 under setting [2] is 18.4 µM [falling, partial curve, poor fit].
